Reference: patent US20260265538A1, “Aqueous Industrial Product Stabilized Against Microbial Contamination” (Thor GmbH, priority 2023, published 2026)
Further values from the same series stand in other lists.

What was measured:
Bacteria mixture 3 = assay: Repetitive stress test of calcium carbonate slurry with bacteria mixture 3, semiquantitative evaluation (example 6); format: cell-based; parameters: key: 0: No growth; Minimal growth, 1 to 10 colonies visible over the entire streak; 2: Light growth, maximum 100 colonies; Moderate growth, maximum 300 to 400 colonies; Uniform growth, >400 colonies, single colonies still clearly recognizable; 5: Heavy growth, too many colonies to count, but no growth over the entire streak; 6: Full growth, barely any single colonies still apparent, growth over the entire streak; conditions: 6 d
Method: The calcium carbonate slurry was stored at 60° C. for 3 days prior to addition of the guanidinium salts for heat sterilization. The slurry thus treated was then admixed and homogenized with different concentrations of guanidine salts. The slurry prepared in this way was inoculated repeatedly with bacteria strains of practical relevance (bacteria mixture 3).
• Alcaligenes faecalis NCIMB 13145 • Aeromonas hydrophila DSM 6173 • Escherichia coli DSM 13631 • Burkholderia cepacia DSM 9241 • Staphylococcus aureus DSM 799 • Pseudomonas aeruginosa DSM 50071 • Pseudomonas putida DSM 13624
(§1) The inoculum was added to the respective sample in each inoculation at 2% (v/w) as a fresh cell suspension in a physiological saline solution (0.9% NaCl). The cell count of the added inoculum in example 1 was 10^5/ml, in examples 2 to 5 10^9/ml, and in example 6 10^6/ml, each in equal portions consisting of the individual bacterial strains. The cell suspension was produced by growing the individual bacteria at 30° C. for 24 h in liquid culture on a shaker. The medium used to grow the bacteria from bacteria mixture 1 was Müller-Hinton liquid medium. Bacteria from bacteria mixture 2 were grown in Müller-Hinton liquid medium that had been adjusted to pH 9.5-9.7 with an alkaline buffer solution beforehand. After growing, the individual liquid cultures were centrifuged, and the cells were resuspended in physiological saline solution. In order to adjust the mixture to the desired cell count, the individual bacteria suspensions, if necessary, were diluted accordingly before being combined with saline solution. The cell count of the inoculum was determined in each case by chamber counting.
(§2) In examples 2 to 6, what is called a repetitive stress test with bacteria was conducted by inoculating the samples at particular time intervals repeatedly with a bacteria suspension having a cell count of 10^9/ml (2% v/w) and monitoring the evolution of the bacteria by a semiquantitative evaluation method. After each inoculation, the samples were incubated at 30° C. for 6 days (bacteria mixture 1 and 3) or 7 and 14 days (bacteria mixture 2), and after these periods bacterial infestation was evaluated semiquantitatively in each case. For this purpose, an aliquot was taken from each sample after homogenization using a sterile plastic inoculation loop (10 μl) and streaked evenly on agar plates (bacteria mixture 1 and 3 on tryptic soy agar, bacteria mixture 2 on DSMZ 31 alkaline nutrient agar). The streaked agar plates were then incubated at 30° C. for 48 h (bacteria mixture 1 and 3) or 5 to 7 days (bacteria mixture 2). After incubation, the bacterial colonies grown on the agar plates were visually evaluated and quantified according to the following scheme:
(§3) A total of 3 inoculation cycles was performed in each repetitive stress test.
Inoculation 2% (w/v) with Bacteria Mixture 3, 10^6 CFU/ml

[1] = system: Bacteria mixture 1 (Pseudomonas genus); assay: Repetitive stress test of paints with bacteria mixture 1, semiquantitative evaluation (examples 2 and 3); format: cell-based; parameters: key: 0: No growth; Minimal growth, 1 to 10 colonies visible over the entire streak; 2: Light growth, maximum 100 colonies; Moderate growth, maximum 300 to 400 colonies; Uniform growth, >400 colonies, single colonies still clearly recognizable; 5: Heavy growth, too many colonies to count, but no growth over the entire streak; 6: Full growth, barely any single colonies still apparent, growth over the entire streak; conditions: Table 3, 6 d
Source text: Paints 1 to 3 were mixed and homogenized with various concentrations of the guanidinium salts to be tested.
The batches obtained of the paint thus prepared were inoculated repeatedly with a mixture of different wild-type bacterial strains that are of practical relevance with regard to contamination. These bacteria had previously been isolated from commercial emulsion paints containing conventional preservatives (bacteria mixture 1, Pseudomonas genus), which are microbially contaminated in practice, and commercial so-called preservative-free alkaline emulsion paints (bacteria mixture 2, alkaliphilic bacteria of the Nesterenkonia & Alkalibacterium genus), which are microbially contaminated in practice.
• Pseudomonas spp. (Pseudomonas oleovorans group) DSM 33933 • Pseudomonas aeruginosa DSM 33935 • Pseudomonas oleovorans DSM 33936 • Pseudomonas putida DSM 33937 • Pseudomonas aeruginosa DSM 33938
as §1, §2, §3
Inoculation 2% (w/v) with Bacteria Mixture 1, 10^9 CFU/ml
2% (w/v) Inoculation with Bacteria Mixture 1, […]

For `N=C(N)N.N=C(N)N.O=C(O)O` [guanidine carbonate], the “Bacterial growth after inoculation” value (Bacteria mixture 3; Table 6, +0.025% guanidine carbonate (164 ppm guanidine), pH 9.3, 1. inoculation) was 6, the “Bacterial growth after inoculation” value (Bacteria mixture 3; Table 6, +0.025% guanidine carbonate (164 ppm guanidine), pH 9.3, 2. inoculation) was 6 and the “Bacterial growth after inoculation” value (Bacteria mixture 3; Table 6, +0.025% guanidine carbonate (164 ppm guanidine), pH 9.3, 3. inoculation) was 6. For the same compound, the “Bacterial growth after inoculation” value (Bacteria mixture 3; Table 6, +0.05% guanidine carbonate (328 ppm guanidine), pH 9.4, 1. inoculation) was 3 (Moderate growth, maximum 300 to 400 colonies), the “Bacterial growth after inoculation” value (Bacteria mixture 3; Table 6, +0.05% guanidine carbonate (328 ppm guanidine), pH 9.4, 2. inoculation) was 5 and the “Bacterial growth after inoculation” value (Bacteria mixture 3; Table 6, +0.05% guanidine carbonate (328 ppm guanidine), pH 9.4, 3. inoculation) was 6. For the same compound, the “Bacterial growth after inoculation” value (Bacteria mixture 3; Table 6, +0.075% guanidine carbonate (492 ppm guanidine), pH 9.4, 1. inoculation) was 0, the “Bacterial growth after inoculation” value (Bacteria mixture 3; Table 6, +0.075% guanidine carbonate (492 ppm guanidine), pH 9.4, 2. inoculation) was 3 (Moderate growth, maximum 300 to 400 colonies) and the “Bacterial growth after inoculation” value (Bacteria mixture 3; Table 6, +0.075% guanidine carbonate (492 ppm guanidine), pH 9.4, 3. inoculation) was 6. For the same compound, the “Bacterial growth after inoculation” value (Bacteria mixture 3; Table 6, +0.1% guanidine carbonate (656 ppm guanidine), pH 9.5, 1. inoculation) was 0, the “Bacterial growth after inoculation” value (Bacteria mixture 3; Table 6, +0.1% guanidine carbonate (656 ppm guanidine), pH 9.5, 2. inoculation) was 0 and the “Bacterial growth after inoculation” value (Bacteria mixture 3; Table 6, +0.1% guanidine carbonate (656 ppm guanidine), pH 9.5, 3. inoculation) was 0. For the same compound, the “Bacterial growth after inoculation” value ([1]; Paint 1, +0.1% guanidine carbonate (656 ppm guanidine), pH 9.1, 1. inoculation) was 6, the “Bacterial growth after inoculation” value ([1]; Paint 1, +0.1% guanidine carbonate (656 ppm guanidine), pH 9.1, 2. inoculation) was 6 and the “Bacterial growth after inoculation” value ([1]; Paint 1, +0.1% guanidine carbonate (656 ppm guanidine), pH 9.1, 3. inoculation) was 6. The “Bacterial growth after inoculation” value ([1]; Paint 1, +0.125% guanidine carbonate (820 ppm guanidine), pH 9.3, 1. inoculation) was 3 (Moderate growth, maximum 300 to 400 colonies), the “Bacterial growth after inoculation” value ([1]; Paint 1, +0.125% guanidine carbonate (820 ppm guanidine), pH 9.3, 2. inoculation) was 5 and the “Bacterial growth after inoculation” value ([1]; Paint 1, +0.125% guanidine carbonate (820 ppm guanidine), pH 9.3, 3. inoculation) was 6. The “Bacterial growth after inoculation” value ([1]; Paint 1, +0.15% guanidine carbonate (984 ppm guanidine), pH 9.4, 1. inoculation) was 0, the “Bacterial growth after inoculation” value ([1]; Paint 1, +0.15% guanidine carbonate (984 ppm guanidine), pH 9.4, 2. inoculation) was 0 and the “Bacterial growth after inoculation” value ([1]; Paint 1, +0.15% guanidine carbonate (984 ppm guanidine), pH 9.4, 3. inoculation) was 6. The “Bacterial growth after inoculation” value ([1]; Paint 1, +0.175% guanidine carbonate (1148 ppm guanidine), pH 9.4, 1. inoculation) was 0, the “Bacterial growth after inoculation” value ([1]; Paint 1, +0.175% guanidine carbonate (1148 ppm guanidine), pH 9.4, 2. inoculation) was 0 and the “Bacterial growth after inoculation” value ([1]; Paint 1, +0.175% guanidine carbonate (1148 ppm guanidine), pH 9.4, 3. inoculation) was 6. The “Bacterial growth after inoculation” value ([1]; Paint 1, +0.2% guanidine carbonate (1312 ppm guanidine), pH 9.6, 1. inoculation) was 0, the “Bacterial growth after inoculation” value ([1]; Paint 1, +0.2% guanidine carbonate (1312 ppm guanidine), pH 9.6, 2. inoculation) was 0 and the “Bacterial growth after inoculation” value ([1]; Paint 1, +0.2% guanidine carbonate (1312 ppm guanidine), pH 9.6, 3. inoculation) was 0. The “Bacterial growth after inoculation” value ([1]; Paint 1, +0.3% guanidine carbonate (1968 ppm guanidine), pH 9.7, 1. inoculation) was 0, the “Bacterial growth after inoculation” value ([1]; Paint 1, +0.3% guanidine carbonate (1968 ppm guanidine), pH 9.7, 2. inoculation) was 0 and the “Bacterial growth after inoculation” value ([1]; Paint 1, +0.3% guanidine carbonate (1968 ppm guanidine), pH 9.7, 3. inoculation) was 0. For the same compound, the “Bacterial growth after inoculation” value ([1]; Paint 2, +0.1% guanidine carbonate (656 ppm guanidine), pH 8.9, 1. inoculation) was 6, the “Bacterial growth after inoculation” value ([1]; Paint 2, +0.1% guanidine carbonate (656 ppm guanidine), pH 8.9, 2. inoculation) was 6 and the “Bacterial growth after inoculation” value ([1]; Paint 2, +0.1% guanidine carbonate (656 ppm guanidine), pH 8.9, 3. inoculation) was 6. The “Bacterial growth after inoculation” value ([1]; Paint 2, +0.125% guanidine carbonate (820 ppm guanidine), pH 9.0, 1. inoculation) was 6, the “Bacterial growth after inoculation” value ([1]; Paint 2, +0.125% guanidine carbonate (820 ppm guanidine), pH 9.0, 2. inoculation) was 6 and the “Bacterial growth after inoculation” value ([1]; Paint 2, +0.125% guanidine carbonate (820 ppm guanidine), pH 9.0, 3. inoculation) was 6. The “Bacterial growth after inoculation” value ([1]; Paint 2, +0.15% guanidine carbonate (984 ppm guanidine), pH 9.0, 1. inoculation) was 6, the “Bacterial growth after inoculation” value ([1]; Paint 2, +0.15% guanidine carbonate (984 ppm guanidine), pH 9.0, 2. inoculation) was 6 and the “Bacterial growth after inoculation” value ([1]; Paint 2, +0.15% guanidine carbonate (984 ppm guanidine), pH 9.0, 3. inoculation) was 6. For the same compound, the “Bacterial growth after inoculation” value ([1]; Paint 2, +0.175% guanidine carbonate (1148 ppm guanidine), pH 9.1, 1. inoculation) was 0, the “Bacterial growth after inoculation” value ([1]; Paint 2, +0.175% guanidine carbonate (1148 ppm guanidine), pH 9.1, 2. inoculation) was 0 and the “Bacterial growth after inoculation” value ([1]; Paint 2, +0.175% guanidine carbonate (1148 ppm guanidine), pH 9.1, 3. inoculation) was 6. The “Bacterial growth after inoculation” value ([1]; Paint 2, +0.2% guanidine carbonate (1312 ppm guanidine), pH 9.1, 1. inoculation) was 0, the “Bacterial growth after inoculation” value ([1]; Paint 2, +0.2% guanidine carbonate (1312 ppm guanidine), pH 9.1, 2. inoculation) was 0 and the “Bacterial growth after inoculation” value ([1]; Paint 2, +0.2% guanidine carbonate (1312 ppm guanidine), pH 9.1, 3. inoculation) was 6. For the same compound, the “Bacterial growth after inoculation” value ([1]; Paint 2, +0.25% guanidine carbonate (1640 ppm guanidine), pH 9.1, 1. inoculation) was 0, the “Bacterial growth after inoculation” value ([1]; Paint 2, +0.25% guanidine carbonate (1640 ppm guanidine), pH 9.1, 2. inoculation) was 0 and the “Bacterial growth after inoculation” value ([1]; Paint 2, +0.25% guanidine carbonate (1640 ppm guanidine), pH 9.1, 3. inoculation) was 6. For the same compound, the “Bacterial growth after inoculation” value ([1]; Paint 2, +0.3% guanidine carbonate (1968 ppm guanidine), pH 9.2, 1. inoculation) was 0, the “Bacterial growth after inoculation” value ([1]; Paint 2, +0.3% guanidine carbonate (1968 ppm guanidine), pH 9.2, 2. inoculation) was 0 and the “Bacterial growth after inoculation” value ([1]; Paint 2, +0.3% guanidine carbonate (1968 ppm guanidine), pH 9.2, 3. inoculation) was 0.
